Experimental data: PubChem BioAssay AID256 (DTP/NCI, 2004)
The list is a part of this screen's results and no random one: it is rich in T/C values a quarter to a half above the control, in often repeated tests (any T/C) and in doses without a T/C. Further doses and runs are listed elsewhere. T/C: endpoint of the treated group in % of that of the vehicle group. Some doses have a count of surviving animals in place of a T/C: the source files T/C as zero there, which appears to mark a toxic dose or a test without result, not a measured value. Some doses without a T/C left all or most animals alive at the check, yet need not have been tolerated: the source hardly ever lists a survival T/C far under the control, and the zero likely stands for such cases as well. Counts of survivors are from the toxicity check (mostly the fifth day) where no day follows; animals may have died later. Schedules are NCI's codes, taken here to give the interval after Q, in days (D) or hours (H), and the number of doses after X. Some entries were tested several times; the values are given in rising order. Where survival is the endpoint, the PubChem record calls one and a half times the control and up active, and a quarter to a half above the control has no call in these data; cut-offs in other NCI protocols can differ. Some T/C values are followed by the survivors on the day toxicity was checked, most often the fifth; where none is given, no animal had died by that day.

Test system: CD2F1 mice, L1210 leukemia ip, survival T/C
Assay: NCI In Vivo Anticancer Drug Screen. Data for tumor model L1210 Leukemia (intraperitoneal) in CD2F1 (CDF1) mice
Settings: higher T/C = longer survival
Outline: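 Each value reflects a quotient of treated over vehicle control outcomes in mice with a transplanted tumor.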

[1] = T/C endpoint: mean survival time, dose: 25.0 mg/kg/injection, schedule: Q01DX009 (ip), vehicle: water
[2] = T/C endpoint: mean survival time, dose: 50.0 mg/kg/injection, schedule: Q01DX009 (ip), vehicle: other
[3] = T/C endpoint: mean survival time, dose: 50.0 mg/kg/injection, schedule: Q01DX009 (ip), vehicle: water
[4] = T/C endpoint: mean survival time, dose: 100.0 mg/kg/injection, schedule: Q01DX009 (ip), vehicle: other
[5] = T/C endpoint: mean survival time, dose: 200.0 mg/kg/injection, schedule: Q04DX003 (ip), vehicle: saline with Tween-80
[6] = T/C endpoint: mean survival time, dose: 400.0 mg/kg/injection, schedule: Q04DX003 (ip), vehicle: saline with Tween-80
[7] = T/C endpoint: mean survival time, dose: 400.0 mg/kg/injection, schedule: Q04DX002 (ip), vehicle: saline with Tween-80
[8] = T/C endpoint: mean survival time, dose: 200.0 mg/kg/injection, schedule: Q01DX009 (ip), vehicle: other
[9] = T/C endpoint: mean survival time, dose: 400.0 mg/kg/injection, schedule: Q01DX001 (ip), vehicle: saline with Tween-80
[10] = T/C endpoint: mean survival time, dose: 100.0 mg/kg/injection, schedule: Q04DX003 (ip), vehicle: saline with Tween-80
[11] = T/C endpoint: mean survival time, dose: 300.0 mg/kg/injection, schedule: Q01DX001 (ip), vehicle: saline
[12] = T/C endpoint: mean survival time, dose: 200.0 mg/kg/injection, schedule: Q01DX009 (ip), vehicle: saline with Tween-80
[13] = T/C endpoint: median survival time, dose: 400.0 mg/kg/injection, schedule: Q01DX009 (ip), vehicle: saline with Tween-80

For [O-]c1cc2c3c(c1)c1cc4c(cc1c[n+]3C=C2)OCO4, the T/C (T/C endpoint: mean survival time, dose: 12.5 mg/kg/injection, schedule: Q01DX009 (ip), vehicle: water) was 132 % of control, the T/C [1] was 134 % of control and the survivor count [2] was 4 of 6. The T/C [3] was 130 % of control, the survivor count [4] was 5 of 6 and the survivor count (T/C endpoint: mean survival time, dose: 100.0 mg/kg/injection, schedule: Q01DX009 (ip), vehicle: water) was 2 of 6.
With CCCCCC(CN(C)C)C(=O)/C=C\c1ccc(Cl)cc1Cl (stereo not drawn) the survivor count (T/C endpoint: mean survival time, dose: 50.0 mg/kg/injection, schedule: Q01DX009 (ip), vehicle: alcohol) was 5 of 6.
With Cc1ncc(C=O)c(C)c1O the survivor count (T/C endpoint: mean survival time, dose: 150.0 mg/kg/injection, schedule: Q01DX001 (ip), vehicle: other) was 3 of 6 and the survivor count (T/C endpoint: mean survival time, dose: 300.0 mg/kg/injection, schedule: Q01DX001 (ip), vehicle: other) was 0 of 6.
For CC1(C)N=C(N)N=C(N)N1c1ccc(C(=O)c2ccccc2)cc1, the survivor count [5] was 0 of 6 and the survivor count [6] was 0 of 6.
With CCC(=O)Nc1cc([N+](=O)[O-])cc([N+](=O)[O-])c1 the survivor count [7] was 0 of 3.
For CC(C)NC(=O)c1ccc(N=NN(C)C)cc1, the T/C (T/C endpoint: mean survival time, dose: 25.0 mg/kg/injection, schedule: Q01DX009 (ip), vehicle: other) was 128 % of control, the survivor count (T/C endpoint: mean survival time, dose: 100.0 mg/kg/injection, schedule: Q01DX009 (ip), vehicle: DMSO) was 6 of 6 and the T/C [4] was 132 % of control [4 of 6 alive]. The survivor count [4] was 3 of 6, the survivor count (T/C endpoint: mean survival time, dose: 200.0 mg/kg/injection, schedule: Q01DX009 (ip), vehicle: DMSO) was 4 of 6 and the survivor count [8] was 1 of 6, 2 of 6, 3 of 6. The survivor count (T/C endpoint: mean survival time, dose: 400.0 mg/kg/injection, schedule: Q01DX009 (ip), vehicle: DMSO) was 0 of 6 and the survivor count (T/C endpoint: mean survival time, dose: 400.0 mg/kg/injection, schedule: Q01DX009 (ip), vehicle: other) was 2 of 6.
CC(CO)CCC1OC2CC3C4CCC5CC(O)CCC5(C)C4CCC3(C)C2C1C (stereo not drawn) was tested, and the survivor count [9] was 6 of 6.
With NC(=O)c1cc(N2CC2)c([N+](=O)[O-])cc1[N+](=O)[O-] the survivor count (T/C endpoint: mean survival time, dose: 100.0 mg/kg/injection, schedule: Q01DX009 (ip), vehicle: saline with Tween-80) was 2 of 6.
With Nc1c([N+](=O)[O-])cncc1[N+](=O)[O-] the survivor count [10] was 0 of 6, the survivor count [5] was 0 of 6 and the survivor count [6] was 0 of 6.
N#C/C(=C\c1c[nH]c2ccccc12)C(N)=O was tested, and the survivor count [8] was 6 of 6.
C/C(=C\Cl)CN(C)C was tested, and the survivor count (T/C endpoint: mean survival time, dose: 200.0 mg/kg/injection, schedule: Q01DX009 (ip), vehicle: acetone) was 1 of 6.
With c1ccc(C2=C(c3ccccc3)OC(c3ccccc3)=C(c3ccccc3)O2)cc1 the survivor count (T/C endpoint: mean survival time, dose: 200.0 mg/kg/injection, schedule: Q01DX001 (ip), vehicle: saline with Tween-80) was 6 of 6.
For COc1cccc2c1CCN1C3=C(CC(OC)CC3)C(=O)CC21 (stereo not drawn), the survivor count [5] was 0 of 6 and the survivor count [6] was 0 of 6.
CS(=O)(=O)c1cc([N+](=O)[O-])cc([N+](=O)[O-])c1Cl was tested, and the survivor count (T/C endpoint: mean survival time, dose: 20.0 mg/kg/injection, schedule: Q04DX003 (ip), vehicle: saline with Tween-80) was 2 of 6, the survivor count [10] was 0 of 6 and the survivor count [5] was 0 of 6. For the same compound, the survivor count [6] was 0 of 6.
Oc1cc2c3c(c1)c1cc4c(cc1c[n+]3CC2)OCO4 was tested, and the T/C (T/C endpoint: mean survival time, dose: 6.25 mg/kg/injection, schedule: Q01DX009 (ip), vehicle: other) was 125 % of control, the T/C (T/C endpoint: mean survival time, dose: 6.25 mg/kg/injection, schedule: Q01DX009 (ip), vehicle: water) was 126 % of control and the T/C (T/C endpoint: mean survival time, dose: 12.5 mg/kg/injection, schedule: Q01DX009 (ip), vehicle: other) was 139 % of control. The T/C [1] was 137 % of control, the survivor count [2] was 5 of 6 and the survivor count [3] was 3 of 6.
CC(=O)CC(C)(C)N was tested, and the survivor count [5] was 5 of 6 and the survivor count [6] was 0 of 6.
For O=P(O)(O)CP(=O)(O)O.[NH-]CC[NH-].[NH-]CC[NH-].[Pd+2].[Pd+2], the survivor count (T/C endpoint: mean survival time, dose: 200.0 mg/kg/injection, schedule: Q04DX003 (ip), vehicle: distilled water + Tween-80) was 0 of 6.
O=C(O)c1[nH]c2c([N+](=O)[O-])cc([N+](=O)[O-])cc2c1C(=O)O was tested, and the survivor count [11] was 0 of 6.
In the case of C/C(=N/NC(N)=S)c1ccc(NC(=O)C(Cl)Cl)cc1, the survivor count [11] is reported as 0 of 6.
For CCC(C)C(CO)c1ccccc1 (stereo not drawn), the survivor count [12] was 0 of 6.
In the case of NC(=S)N/N=C/c1ccc(OC(=O)COc2ccc(Cl)cc2)cn1, the T/C [12] is reported as 126 % of control, the T/C (T/C endpoint: mean survival time, dose: 200.0 mg/kg/injection, schedule: Q04DX002 (ip), vehicle: saline with Tween-80) is reported as 130 % of control and the T/C [9] is reported as 130 % of control. For the same compound, the T/C [7] was 130 and 149 % of control, the survivor count (T/C endpoint: mean survival time, dose: 450.0 mg/kg/injection, schedule: Q01DX009 (ip), vehicle: saline with Tween-80) was 8 of 10 and the T/C (T/C endpoint: mean survival time, dose: 600.0 mg/kg/injection, schedule: Q01DX001 (ip), vehicle: saline with Tween-80) was 140 % of control. The T/C (T/C endpoint: mean survival time, dose: 800.0 mg/kg/injection, schedule: Q04DX002 (ip), vehicle: saline with Tween-80) was 141 % of control, the T/C (T/C endpoint: median survival time, dose: 25.0 mg/kg/injection, schedule: Q01DX009 (ip), vehicle: saline with Tween-80) was 126 % of control and the T/C (T/C endpoint: median survival time, dose: 25.0 mg/kg/injection, schedule: Q01DX009 (ip), vehicle: saline) was 140 % of control. The T/C (T/C endpoint: median survival time, dose: 50.0 mg/kg/injection, schedule: Q01DX009 (ip), vehicle: saline with Tween-80) was 146 % of control, the T/C (T/C endpoint: median survival time, dose: 59.0 mg/kg/injection, schedule: Q01DX009 (ip), vehicle: saline with Tween-80) was 147 % of control and the T/C [13] was 143 % of control [5 of 6 alive]. The survivor count (T/C endpoint: median survival time, dose: 450.0 mg/kg/injection, schedule: Q01DX009 (ip), vehicle: saline with Tween-80) was 5 of 6.
Cn1c(=O)c2c(ncn2-c2ccncc2)n(C)c1=O was tested, and the survivor count (T/C endpoint: mean survival time, dose: 200.0 mg/kg/injection, schedule: Q01DX005 (ip), vehicle: saline with Tween-80) was 1 of 6.
For CC(C)(O)C#CC#CC(C)(C)O, the survivor count (T/C endpoint: mean survival time, dose: 300.0 mg/kg/injection, schedule: Q01DX001 (ip), vehicle: saline with Tween-80) was 3 of 6.
For CCC(=O)OC1=CC(=O)c2ccccc2C1=O, the survivor count [11] was 3 of 6.
NNc1nc(=O)[nH]nc1SCc1ccccc1 was tested, and the survivor count [11] was 1 of 6.
For CCCCCCCCCCCCCCCCCC(=O)NN, the T/C (T/C endpoint: mean survival time, dose: 400.0 mg/kg/injection, schedule: Q01DX009 (ip), vehicle: saline with Tween-80) was 130 and 141 % of control.
For CCOC(=O)/C(C#N)=C(\C)c1cccc(C)c1, the survivor count [5] was 6 of 6 and the survivor count [6] was 5 of 6.
In the case of CCC(=O)c1cc([N+](=O)[O-])ccc1N, the survivor count [6] is reported as 5 of 6.
Nc1ccn([C@H]2C[C@@H](CO)[C@H](O)[C@@H]2O)c(=O)n1 was tested, and the T/C (T/C endpoint: mean survival time, dose: 100.0 mg/kg/injection, schedule: Q01DX009 (ip), vehicle: saline) was 136 % of control and the T/C (T/C endpoint: mean survival time, dose: 300.0 mg/kg/injection, schedule: Q01DX009 (ip), vehicle: saline) was 149 % of control.
In the case of [N-]=[N+]=NC1=C(c2ccccc2)C(=O)C=C(c2ccccc2)C1=O, the survivor count [5] is reported as 3 of 3.
With O=C1c2ccccc2C(Cl)(c2ccc(Cl)cc2)c2ccc(Cl)cc21 (stereo not drawn) the survivor count (T/C endpoint: median survival time, dose: 200.0 mg/kg/injection, schedule: Q01DX009 (ip), vehicle: saline with Tween-80) was 4 of 6 and the survivor count [13] was 2 of 6.
In the case of CC1(C)N=C(N)N=C(N)N1c1ccc(OCCOc2ccc(NC(=O)CBr)cc2)cc1, the T/C (T/C endpoint: mean survival time, dose: 400.0 mg/kg/injection, schedule: Q01DX006 (ip), vehicle: other) is reported as 149 % of control.
